In publication PMC6995525, “Structure of the PUB Domain from Ubiquitin Regulatory X Domain Protein 1 (UBXD1) and Its Interaction with the p97 AAA+ ATPase” (Biomolecules, 2019):
No constants are given. Whether binding was seen depends on the method and setting.

Target: UBXD1-PUB (150–264) (UniProt Q9BZV1)
Assay: NMR 15N relaxation (rotational correlation time from T1/T2); 15N-UBXD1-PUB, 25 °C, 50 mM NaKPi pH 6.5; NMR samples 200–800 µM; averaged τc = 7.9 ns gives MW 13.0 kDa; both purified

binding: no binding
B1: UBXD1-PUB (150–264) (domain or fragment, UniProt Q9BZV1 150-264)
chain: STDPVAASIMKIYTFNKDQDRVKLGVDTIAKYLDNIHLHPEEEKYRKIKLQNKVFQERINCLEGTHEFFEAIGFQKVLLPAQDQEDPEEFYVLSETTLAQPQSLERHKEQLLAAE
